The target of assay [1] is T1, Full length human integrin alpha4beta7 (expressed in 293 cells, purified by Fib504 affinity chromatography) (human) (UniProt P13612+P26010). In words: phage binding assay (OD): Fab displayed on phage, immobilised alpha4beta7, albumin as control coat.
Assay [2] deals with T1, Full length human integrin alpha4beta7 (expressed in 293 cells, purified by Fib504 affinity chromatography) (human). In words: phage-displayed Fab on immobilized alpha4beta7.
Assay [3] has as its target alphaEbeta7 on alphaEbeta7-transfected 293 cells (human) (UniProt P38570+P26010). In words: summary of the cell adhesion inhibition assays; alphaEbeta7.
Assay [4] addresses T1, Full length human integrin alpha4beta7 (expressed in 293 cells, purified by Fib504 affinity chromatography) (human). Nature of the assay: SPR (BIAcore), Fab. A general note: In SPR one partner is held on a chip, and binding of the other changes the refractive index at the surface.
Assay [5] deals with human alpha4beta7 receptor on RPMI8866 cells (human) (UniProt P13612+P26010). In words: cell adhesion blocking assay: BCECF-labelled RPMI8866 cells (alpha4beta7) adhering to plate-coated human MAdCAM-1-Ig, antibody titrated.

By UniProt entry, the sequences of proteins in these tests, tags left out. Where a name states a change or a piece, a line headed by the entry shows the natural chain unless it says otherwise.
UniProt P13612: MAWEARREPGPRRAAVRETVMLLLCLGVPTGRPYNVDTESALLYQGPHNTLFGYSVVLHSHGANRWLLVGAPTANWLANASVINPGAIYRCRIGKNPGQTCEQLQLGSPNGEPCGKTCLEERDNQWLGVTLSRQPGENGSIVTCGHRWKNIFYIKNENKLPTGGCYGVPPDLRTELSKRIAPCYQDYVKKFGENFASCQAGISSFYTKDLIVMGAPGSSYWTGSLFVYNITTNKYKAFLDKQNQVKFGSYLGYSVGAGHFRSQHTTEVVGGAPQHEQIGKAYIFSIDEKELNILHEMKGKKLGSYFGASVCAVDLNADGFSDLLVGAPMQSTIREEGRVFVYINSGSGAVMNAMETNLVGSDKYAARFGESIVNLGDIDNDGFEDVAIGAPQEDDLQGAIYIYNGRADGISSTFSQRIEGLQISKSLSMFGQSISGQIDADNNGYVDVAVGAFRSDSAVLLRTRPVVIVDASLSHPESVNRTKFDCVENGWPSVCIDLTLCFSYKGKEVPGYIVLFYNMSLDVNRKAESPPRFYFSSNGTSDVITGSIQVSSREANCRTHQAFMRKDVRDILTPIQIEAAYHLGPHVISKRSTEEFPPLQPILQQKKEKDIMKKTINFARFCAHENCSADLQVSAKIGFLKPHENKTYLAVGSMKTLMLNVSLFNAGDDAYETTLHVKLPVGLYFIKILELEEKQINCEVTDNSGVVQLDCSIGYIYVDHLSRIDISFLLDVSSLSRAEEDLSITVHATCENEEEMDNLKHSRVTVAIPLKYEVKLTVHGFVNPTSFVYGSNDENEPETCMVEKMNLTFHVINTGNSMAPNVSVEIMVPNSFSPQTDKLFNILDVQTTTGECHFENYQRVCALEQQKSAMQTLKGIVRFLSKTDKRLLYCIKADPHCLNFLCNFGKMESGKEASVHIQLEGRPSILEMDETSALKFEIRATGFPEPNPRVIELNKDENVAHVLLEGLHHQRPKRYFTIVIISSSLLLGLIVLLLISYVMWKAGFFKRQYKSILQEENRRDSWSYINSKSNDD
UniProt P26010: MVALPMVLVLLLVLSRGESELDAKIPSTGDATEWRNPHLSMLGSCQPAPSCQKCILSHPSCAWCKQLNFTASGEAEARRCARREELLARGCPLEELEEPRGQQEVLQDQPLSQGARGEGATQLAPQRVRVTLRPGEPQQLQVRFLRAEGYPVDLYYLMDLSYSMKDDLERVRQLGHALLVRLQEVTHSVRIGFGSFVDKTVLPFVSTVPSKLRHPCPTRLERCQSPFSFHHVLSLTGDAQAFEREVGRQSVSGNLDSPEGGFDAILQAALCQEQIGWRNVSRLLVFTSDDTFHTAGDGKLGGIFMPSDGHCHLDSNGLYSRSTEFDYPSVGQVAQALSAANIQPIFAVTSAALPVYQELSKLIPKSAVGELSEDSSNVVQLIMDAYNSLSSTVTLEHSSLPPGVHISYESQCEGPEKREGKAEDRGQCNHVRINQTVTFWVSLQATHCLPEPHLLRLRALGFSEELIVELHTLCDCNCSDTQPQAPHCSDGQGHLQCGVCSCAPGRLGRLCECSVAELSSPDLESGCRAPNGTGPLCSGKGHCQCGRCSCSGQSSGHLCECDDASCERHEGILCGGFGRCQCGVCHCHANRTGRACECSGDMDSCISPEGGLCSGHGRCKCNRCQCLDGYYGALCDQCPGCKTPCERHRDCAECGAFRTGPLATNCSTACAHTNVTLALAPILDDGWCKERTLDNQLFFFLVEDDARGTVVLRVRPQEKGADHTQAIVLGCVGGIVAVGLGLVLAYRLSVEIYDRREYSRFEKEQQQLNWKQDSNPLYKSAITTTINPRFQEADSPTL
UniProt P38570: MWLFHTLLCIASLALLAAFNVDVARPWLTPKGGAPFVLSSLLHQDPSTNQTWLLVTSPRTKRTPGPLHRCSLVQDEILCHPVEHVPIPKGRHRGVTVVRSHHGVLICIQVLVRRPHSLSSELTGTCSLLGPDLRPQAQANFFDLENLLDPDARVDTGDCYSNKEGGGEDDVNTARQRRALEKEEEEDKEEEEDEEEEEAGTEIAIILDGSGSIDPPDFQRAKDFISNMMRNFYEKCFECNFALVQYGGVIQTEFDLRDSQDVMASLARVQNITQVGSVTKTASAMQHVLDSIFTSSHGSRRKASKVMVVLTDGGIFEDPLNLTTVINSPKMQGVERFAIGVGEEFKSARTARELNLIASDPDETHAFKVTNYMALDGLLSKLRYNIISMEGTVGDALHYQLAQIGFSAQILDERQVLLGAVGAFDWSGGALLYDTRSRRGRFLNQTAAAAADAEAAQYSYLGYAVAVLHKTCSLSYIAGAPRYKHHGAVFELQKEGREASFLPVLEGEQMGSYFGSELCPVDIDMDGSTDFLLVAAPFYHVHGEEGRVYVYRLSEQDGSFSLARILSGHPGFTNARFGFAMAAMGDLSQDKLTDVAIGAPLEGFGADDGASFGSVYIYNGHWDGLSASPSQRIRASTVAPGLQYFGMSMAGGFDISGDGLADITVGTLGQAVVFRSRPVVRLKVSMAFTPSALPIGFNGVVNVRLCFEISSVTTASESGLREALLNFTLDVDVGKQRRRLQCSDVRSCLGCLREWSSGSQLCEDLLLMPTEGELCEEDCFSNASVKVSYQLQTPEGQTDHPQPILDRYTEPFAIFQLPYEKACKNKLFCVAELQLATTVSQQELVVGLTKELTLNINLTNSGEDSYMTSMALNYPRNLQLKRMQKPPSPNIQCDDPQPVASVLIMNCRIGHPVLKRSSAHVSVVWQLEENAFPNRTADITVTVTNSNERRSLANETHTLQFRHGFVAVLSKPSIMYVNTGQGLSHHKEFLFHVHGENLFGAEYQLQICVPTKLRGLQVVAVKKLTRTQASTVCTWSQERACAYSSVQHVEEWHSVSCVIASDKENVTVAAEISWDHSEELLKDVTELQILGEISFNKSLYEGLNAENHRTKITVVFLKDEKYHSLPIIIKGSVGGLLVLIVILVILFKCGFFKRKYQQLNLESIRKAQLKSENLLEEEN

No constants are given. Whether binding was seen depends on the method and setting. Some binding calls cover weakened binding; strength is not graded here.

B1: Fib504K-RF graft (Fib504K graft in the RF acceptor framework), Fab (Fab, V domains shown)
VH: EVQLVESGGGLVQPGGSLRLSCAASGFFITNNYWGWVRQAPGKGLEWVGYISYSGSTSYNPSLKSRFTISRDTSKNTFYLQMNSLRAEDTAVYYCAMTGSSGYFDFWGQGTLVTVSS
VL: DIQMTQSPSSLSASVGDRVTITCRASESVDTYLHWYQQKPGKAPKLLIKYASQSISGVPSRFSGSGSGTDFTLTISSLQPEDFATYYCQQGNSLPNTFGQGTKVEIKR
notes: number not given; also called hu504K-RF graft
B1: the binding result in assay [1] and in assay [2] was “binds” throughout.

B2: Variant hu504.32, IgG (antibody, V domains shown)
VH: EVQLVESGGGLVQPGGSLRLSCAASGFFITNNYWGWVRQAPGKGLEWVGYISYSGSTSYNPSLKSRFTISRDTSKNTFYLQMNSLRAEDTAVYYCAMTGSSGYFDFWGQGTLVTVSS
VL: DIQMTQSPSSLSASVGDRVTITCRASESVDDLLHWYQQKPGKAPKLLIKYASQSISGVPSRFSGSGSGTDFTLTISSLQPEDFATYYCQQGNSLPNTFGQGTKVEIKR
notes: methionine at heavy chain position 94; also called hu504.32M; 504.32M
Take B2: the binding result in assay [3] is given as “binds”.

B3: Variant hu504.5, Fab (Fab, name in Kabat numbering, V domains shown)
VH: EVQLVESGGGLVQPGGSLRLSCAASGFFITNNYWGWVRQAPGKGLEWVGYISYSGSTSYNPSLKSRFTISRDTSKNTFYLQMNSLRAEDTAVYYCAMTGSSGYFDFWGQGTLVTVSS
VL: DIQMTQSPSSLSASVGDRVTITCRASESVDSLLHWYQQKPGKAPKLLIKYASQSISGVPSRFSGSGSGTDFTLTISSLQPEDFATYYCQQGNSLPNTFGQGTKVEIKR
notes: Tested as Fab; also called Variant 504.5
As to B3, the binding entry in assay [4] is “binds”.

B4: Variant hu504.5, IgG (antibody, name in Kabat numbering, V domains shown)
VH: EVQLVESGGGLVQPGGSLRLSCAASGFFITNNYWGWVRQAPGKGLEWVGYISYSGSTSYNPSLKSRFTISRDTSKNTFYLQMNSLRAEDTAVYYCAMTGSSGYFDFWGQGTLVTVSS
VL: DIQMTQSPSSLSASVGDRVTITCRASESVDSLLHWYQQKPGKAPKLLIKYASQSISGVPSRFSGSGSGTDFTLTISSLQPEDFATYYCQQGNSLPNTFGQGTKVEIKR
B4: the binding entry in assay [3] is listed as “binds”.

B5: Variant hu504.32, Fab (Fab, V domains shown)
VH: EVQLVESGGGLVQPGGSLRLSCAASGFFITNNYWGWVRQAPGKGLEWVGYISYSGSTSYNPSLKSRFTISRDTSKNTFYLQMNSLRAEDTAVYYCAMTGSSGYFDFWGQGTLVTVSS
VL: DIQMTQSPSSLSASVGDRVTITCRASESVDDLLHWYQQKPGKAPKLLIKYASQSISGVPSRFSGSGSGTDFTLTISSLQPEDFATYYCQQGNSLPNTFGQGTKVEIKR
notes: T31D and Y32L in the light chain of the hu504 Kgraft; Tested as Fab; also called Variant 504.32; humanized variant 504.32
As to B5, in assay [4], the binding result was “binds”.

B6: Variant hu504.16, IgG (antibody, name in Kabat numbering, V domains shown)
VH: EVQLVESGGGLVQPGGSLRLSCAASGFFITNNYWGWVRQAPGKGLEWVGYISYSGSTSYNPSLKSRFTISRDTSKNTFYLQMNSLRAEDTAVYYCAMTGSSGYFDFWGQGTLVTVSS
VL: DIQMTQSPSSLSASVGDRVTITCRASESVDTLLHWYQQKPGKAPKLLIKYASQSISGVPSRFSGSGSGTDFTLTISSLQPEDFATYYCQQGNSLPNTFGQGTKVEIKR
Regarding B6, the binding result in assay [3] is on record as “binds”.

B7: Variant hu504.16, Fab (Fab, name in Kabat numbering, V domains shown)
VH: EVQLVESGGGLVQPGGSLRLSCAASGFFITNNYWGWVRQAPGKGLEWVGYISYSGSTSYNPSLKSRFTISRDTSKNTFYLQMNSLRAEDTAVYYCAMTGSSGYFDFWGQGTLVTVSS
VL: DIQMTQSPSSLSASVGDRVTITCRASESVDTLLHWYQQKPGKAPKLLIKYASQSISGVPSRFSGSGSGTDFTLTISSLQPEDFATYYCQQGNSLPNTFGQGTKVEIKR
notes: Clone from the Fib504K-RF library with an HVR-L1 change; Tested as Fab; also called Variant 504.16
Take B7: in assay [4], the binding result is “binds”.

B8: Rat Fib504 (antibody FIB504.64 produced by hybridoma ATCC HB-293) (antibody, V domains shown)
VH: EVQLQESGPGLVKPSQSLSLTCSVTGFFITNNYWGWIRKFPGNKMEWMGYISYSGSTSYNPSLKSRISITRDTSKNQFFLQLNSVTTEDTATYYCAMTGSSGYFDFWGPGTMVTVSS
VL: DVVMTQSPATLSVTPGERISLSCRASESVDTYLHWYQQKPNESPRLLIKYASQSISGIPSRFSGSGSGTDFTLSINGVELEDLSIYYCQQGNSLPNTFGAGTKLELKR
notes: Whole rat antibody in the cell adhesion assays; also called rat anti-mouse beta7 antibody
Take B8: the binding entry in assay [5] is given as “binds”.

The record behind these values is patent publication US20090226437A1 (Genentech, published 2009).
